Reference: PubChem BioAssay AID651768 (National Center for Advancing Translational Sciences (NCATS), 2012)
In all, about 360,000 compounds went through this assay and about 1,700 (0.47%) were called active. The inconclusive results got no clear call from the source; some entries with a clear call stand among them for comparison. Calls follow the shape of the dose curve; as a rule, active = well fitted inhibition curve with a large enough effect; inconclusive = small, poorly fitted or top-dose-only effect; inactive = no such curve, though single readings can be large or run the other way. Potencies beside an inconclusive call are fits to weak or partial responses and may not hold up.

Protein sequences, listed by entry. Tags and fused reporters are not part of them.
UniProt Q14191, whole entry, looked up: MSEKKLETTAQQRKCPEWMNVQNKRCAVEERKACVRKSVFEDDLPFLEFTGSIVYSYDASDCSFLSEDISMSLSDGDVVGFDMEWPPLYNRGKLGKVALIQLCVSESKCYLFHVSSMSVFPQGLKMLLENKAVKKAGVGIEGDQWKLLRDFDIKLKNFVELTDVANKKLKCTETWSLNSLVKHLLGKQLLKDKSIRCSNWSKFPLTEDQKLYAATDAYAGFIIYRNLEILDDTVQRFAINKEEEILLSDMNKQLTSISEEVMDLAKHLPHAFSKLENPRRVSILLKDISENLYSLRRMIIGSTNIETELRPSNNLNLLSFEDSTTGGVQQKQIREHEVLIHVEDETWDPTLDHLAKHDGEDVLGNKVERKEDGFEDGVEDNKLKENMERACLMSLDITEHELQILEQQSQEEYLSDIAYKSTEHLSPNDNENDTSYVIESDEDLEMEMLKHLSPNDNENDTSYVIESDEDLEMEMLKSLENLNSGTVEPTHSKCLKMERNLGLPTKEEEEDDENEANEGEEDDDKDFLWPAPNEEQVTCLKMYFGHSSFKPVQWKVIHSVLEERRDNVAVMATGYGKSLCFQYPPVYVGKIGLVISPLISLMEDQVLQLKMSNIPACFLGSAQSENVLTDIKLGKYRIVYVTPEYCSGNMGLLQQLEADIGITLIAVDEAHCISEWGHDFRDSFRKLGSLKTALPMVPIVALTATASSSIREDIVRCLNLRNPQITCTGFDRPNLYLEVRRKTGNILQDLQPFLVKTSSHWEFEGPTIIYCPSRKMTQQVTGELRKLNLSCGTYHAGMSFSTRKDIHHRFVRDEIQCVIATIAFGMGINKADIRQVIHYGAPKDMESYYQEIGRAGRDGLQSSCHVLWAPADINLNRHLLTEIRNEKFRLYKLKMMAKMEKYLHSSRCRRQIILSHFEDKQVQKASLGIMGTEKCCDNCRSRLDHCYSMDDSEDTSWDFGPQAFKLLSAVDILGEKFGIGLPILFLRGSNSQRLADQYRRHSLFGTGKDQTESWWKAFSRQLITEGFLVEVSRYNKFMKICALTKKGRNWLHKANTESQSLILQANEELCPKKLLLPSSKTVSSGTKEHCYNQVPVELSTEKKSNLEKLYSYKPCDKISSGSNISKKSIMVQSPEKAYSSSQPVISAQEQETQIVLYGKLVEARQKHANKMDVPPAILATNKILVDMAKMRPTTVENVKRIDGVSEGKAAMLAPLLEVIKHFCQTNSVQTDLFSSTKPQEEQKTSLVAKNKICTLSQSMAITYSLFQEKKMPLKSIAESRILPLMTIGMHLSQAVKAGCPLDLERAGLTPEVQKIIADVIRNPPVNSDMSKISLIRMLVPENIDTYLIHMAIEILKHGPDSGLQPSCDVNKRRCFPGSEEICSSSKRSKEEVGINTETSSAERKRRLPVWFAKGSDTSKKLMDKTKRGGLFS

The compounds below were run against Bifunctional 3'-5' exonuclease/ATP-dependent helicase WRN (Homo sapiens) (UniProt Q14191) (assay: qHTS for Inhibitors of WRN Helicase). Conditions: WRN helicase unwinding, fluorescent forked duplex, kinetic; activity change, negative = inhibition: at 114 µM (top of the series) unless noted.
How it was run: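 Kinetic fluorescence helicase assay: unwinding of a quenched forked DNA duplex (100 nM final) with 2 mM ATP final raises red fluorescence (525/598 nm). Compounds sat 15 min at room temperature with 20 nM WRN beforehand.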
% is scaled to controls: 0 for no effect and ±100 for the full control effect; potency is read from the fitted curve at half-maximal effect.
Also: nearly all actives have a fitted effect of over 55% in size.

SMILES | activity change, negative = inhibition | Potency
COc1ccc(NC(=O)COc2ccc(/C=C/c3cc[n+](C)cc3)cc2OC)cc1 | inactive: -0.777% | –
CC1=C(C#N)C(=O)NC(=O)/C1=C\c1ccc(-c2cc(C)c(C)cc2[N+](=O)[O-])o1 | – | inconclusive: 39.8 µM [inhibitor, partial curve, poor fit]
NC1=NC(=O)/C(=C\c2ccco2)S1 | – | active: 50.1 µM
O=C(N/N=C/c1ccc(N2CCOCC2)o1)c1ccccc1[N+](=O)[O-] | – | inconclusive: 56.2 µM [inhibitor, partial curve]
COc1ccc(/C=N/NC(=O)c2cccc(Br)c2)cc1Cn1cc(Cl)cn1 | inactive: -16.8% | –
S=C(Nc1ccc2nsnc2c1)NC1CCCCC1 | – | inconclusive: 50.1 µM [inhibitor, partial curve]
O=C(O)CSc1nnc(-c2ccccc2)c(-c2ccccc2)n1 | inactive: -0.588% | –
CC(C)C(Cl)=NOC(=O)Nc1ccc(F)cc1 | – | inconclusive: 14.1 µM [inhibitor, full curve]
O=C(CCN1C(=O)/C(=C/C=C/c2ccccc2)SC1=S)Nc1cccnc1 | – | inconclusive: 39.8 µM [inhibitor, partial curve]
O=C(CCCN1C(=O)/C(=C/c2ccco2)SC1=S)Nc1ccccc1C(=O)O | – | active: 31.6 µM
Cc1ccc(/C=C/C(=O)NCCc2cccc(Cl)c2)o1 | – | inconclusive: 20 µM [inhibitor, partial curve]
NS(=O)(=O)c1ccc(N/N=C/c2ccc(O)cc2O)c([N+](=O)[O-])c1 | – | inconclusive: 56.2 µM [inhibitor, partial curve]
Cc1c(CCC(=O)N2CCC(C(=O)O)(c3ccccc3)CC2)c(=O)oc2cc3oc4c(c3cc12)CCCC4 | inactive: -5.55% | –
O=C1CCCN1C(=O)CSc1nnnn1-c1cccc(F)c1 | – | inconclusive: 20 µM [inhibitor, single point]
O=C(CSc1ccc(-c2ccc(F)cc2)nn1)N1CCN(c2ccccc2)CC1 | – | inconclusive: 11.2 µM [inhibitor, partial curve]
Cc1nc2c(C(=O)NCCc3ccccc3Cl)c[nH]n2c(=O)c1Cl | – | inconclusive: 18.9 µM [inhibitor, single point]
O=C(Cn1cnc2sc(-c3ccccc3)cc2c1=O)NCc1ccco1 | – | active: 56.2 µM
CCS(=O)(=O)c1cc([N+](=O)[O-])c(Sc2ccccc2N)s1 | – | inconclusive: 7.94 µM [inhibitor, full curve, poor fit]
CC[n+]1c(/C=C/N(C)c2ccccc2)n(-c2ccccc2)c2ccc(-c3nc4ccccc4s3)cc21 | – | inconclusive: 89.1 µM [inhibitor, single point]
O=C1C=CC(=O)N1c1ccccc1N1C(=O)C=CC1=O | – | inconclusive: 5.32 µM [inhibitor, single point]
O=c1cc(CN2CCCc3ccccc32)nc2sccn12 | – | inconclusive: 25.1 µM [inhibitor, single point]
Cc1ccc(S(=O)(=O)ON2C(=O)c3ccccc3C2=O)c(C)c1 | – | active: 44.7 µM
O=C(COC(=O)Cc1cccc(C(F)(F)F)c1)NCc1ccco1 | – | inconclusive: 56.2 µM [inhibitor, partial curve]

SMILES | activity change, negative = inhibition | Potency
CC(C)Nc1nnc(SCc2cc(=O)n3ccsc3n2)s1 | inactive: -7.27% | –
N#Cc1c(SCC(=O)Nc2nccs2)sc2c(O)cc(=O)[nH]c12 | – | active: 56.2 µM
CN(C)c1ccc(N=Cc2nc(-c3ccccc3)oc2O)cc1 | – | inconclusive: 89.1 µM [inhibitor, single point]
O=C(NCCS(=O)(=O)N1CCN(c2ccccc2F)CC1)C1CC(=O)N(c2ccccc2)C1 (stereo unspecified) | inactive: -1.23% | –
Cc1c(OCC(F)(F)F)ccnc1CS(=O)c1nc2ccccc2[nH]1 (stereo unspecified) | inactive: -0.879% | –
COc1cccc2sc(NN)nc12 | – | inconclusive: 50.1 µM [inhibitor, partial curve]
CCCCCCCCCCCCCCCCn1cc[n+](C)c1 | – | inconclusive: 7.08 µM [inhibitor, full curve, poor fit]
Cc1ccc(CN2C(=O)N/C(=C\c3ccc(-c4ccc(C(=O)O)cc4C)o3)C2=O)cc1 | – | inconclusive: 56.2 µM [inhibitor, single point]
S=c1[nH]nc(-c2ccn[nH]2)n1-c1ccccc1Cl | inactive: -4.7% | –
O=C(O)/C(=C\c1cccc(F)c1)c1ccc(S(=O)(=O)N2CCCCC2)s1 | – | inconclusive: 23.8 µM [inhibitor, partial curve]
COc1ccc(N=c2cc(-c3ccc(OC)cc3)oc3ccccc23)cc1 | – | inconclusive: 89.1 µM [inhibitor, partial curve]
Cc1ccccc1NC(=O)CSC(N)=O | – | inconclusive: 100 µM [inhibitor, partial curve, poor fit]
O=C(Nc1cccc(-n2cnnn2)c1)c1ccc(Cl)cc1Cl | inactive: 2.15% | –
O=C(COc1ccc2oc(-c3ccccc3)cc(=O)c2c1)NCc1ccco1 | – | inconclusive: 56.2 µM [inhibitor, partial curve]
O=C(N/N=C/c1ccc(-c2ccc(Cl)c(C(=O)O)c2)o1)c1cc2c(ccc3ccccc32)o1 | – | active: 20 µM
COc1ccc2[nH]c(CN3CCC(n4nccc4NC(=O)C4CC4)CC3)c(C)c2c1 | – | inconclusive: 25.1 µM [inhibitor, full curve, poor fit]
Cc1cccc(N2CC(C(=O)Nc3nnc(SCc4cccnc4)s3)CC2=O)c1 (stereo unspecified) | – | inconclusive: 35.5 µM [inhibitor, partial curve]
N#Cc1c(-c2ccc(Cl)cc2Cl)nc2n(c1=O)CCS2 | inactive: -14.5% | –
CC(C)N1CCc2c(sc(NC(=O)c3cc4cc([N+](=O)[O-])ccc4s3)c2C(N)=O)C1 | – | active: 79.4 µM
Cc1ncc(CO)c(CNc2ccc(-c3nc4ccccc4[nH]3)cc2)c1O | inactive: -5.45% | –
O=C(Nc1ncn[nH]1)c1ccc(Cl)c(Cl)c1 | – | inconclusive: 35.5 µM [inhibitor, full curve, poor fit]
O=c1oc2ccc(Cl)cc2nc1/C=C(\O)c1cccs1 | – | inconclusive: 8.91 µM [inhibitor, full curve, poor fit]
Fc1cccc2sc(Nc3nc4cc5c(cc4s3)OCO5)nc12 | inactive: -1.96% | –

Taken from above:
Value of Cc1nc2c(C(=O)NCCc3ccccc3Cl)c[nH]n2c(=O)c1Cl under Potency: inconclusive: 18.9 µM [inhibitor, single point]
Value of Cc1ccc(/C=C/C(=O)NCCc2cccc(Cl)c2)o1 under Potency: inconclusive: 20 µM [inhibitor, partial curve]
Value of Cc1ncc(CO)c(CNc2ccc(-c3nc4ccccc4[nH]3)cc2)c1O under activity change, negative = inhibition: inactive: -5.45%
